Measured values taken from patent US7135497B1, “Treating neural conditions resulting from spinal cord contusions and other causes” (New York Medical College, priority 2000, dated 2006).

Test: Body weight of spinal cord contused rats
Assay type: in vivo, rat
Conditions: 6 weeks after contusion, clenbuterol 9 mg/L in drinking water, mean±SE

CC(C)(C)NCC(O)c1cc(Cl)c(N)c(Cl)c1 (stereo not shown) [clenbuterol]
Final Body Wt (6.25 mm weight drop): 340 ± 11 gm
Final Body Wt (12.5 mm weight drop): 331 ± 6 gm
Final Body Wt (25 mm weight drop): 303 ± 8 gm
Final Body Wt (50 mm weight drop): 290 ± 8 gm
